# Data published in PubChem BioAssay AID504467 (National Center for Advancing Translational Sciences (NCATS), 2011).
# Hit rate of the full screen: of about 330,000 compounds, about 7,700 (2.3%) were called active. This list was built around the results that the source calls inconclusive (neither active nor inactive); the mix of calls is not that of the screen. Calls follow the shape of the dose curve; as a rule, active = well fitted inhibition curve with a large enough effect; inconclusive = small, poorly fitted or top-dose-only effect, or effect the other way; inactive = flat fitted curve, though single readings scatter. Where the call is inconclusive, the potency comes from a doubtful curve fit.
# Assay: qHTS screen for small molecules that inhibit ELG1-dependent DNA repair in human embryonic kidney (HEK293T) cells expressing luciferase-tagged ELG1; also: nearly all actives have a fitted effect of over 55% in size
# Conditions: HEK293T ELG1-luciferase reporter, luminescence, 16 h, DNA damage induced by 5-fluorouridine; activity change, negative = inhibition: at 46.1 µM (top of the series)
# Summary of the method: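 5-Fluorouridine DNA damage + compound/DMSO, 2,000 cells/well, 16 h, 37 °C/5% CO2. ONE-Glo, 30 min RT, luminescence. Readout = decrease in reporter signal.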
# % is scaled to controls: 0 for no effect and ±100 for the full control effect; potency is read from the fitted curve at half-maximal effect.
Compound,Potency,"activity change, negative = inhibition"
COc1ccc(NC(=O)Cn2nc(C(=O)O)c3ccccc3c2=O)cc1OC,inactive,
CCn1c(=O)c2cc(C(=O)N3CCN(C(=O)c4ccco4)CC3)sc2c2ccccc21,"inconclusive: 29.1 µM [inhibitor, single point]",
CCOCc1cnc(C)nc1NCC(=O)c1c(C)[nH]c2ccccc12,,inconclusive: 5.86% [activator]
O=C(Nc1ccccc1)N1CCN(C2c3ccccc3-c3ccccc32)CC1,"inconclusive: 18.3 µM [inhibitor, single point]",
Cc1nc(C)c(C(=O)NCc2ccc(Cl)cc2)o1,inactive,
O=C(Nc1ccccc1Cl)Nc1ccnn1C1CCN(C(=O)CCN2CCCO2)CC1,inactive,
COC(=O)c1ccc(-c2nc3ccccc3o2)cc1,"inconclusive: 2.31 µM [activator, partial curve]",
COc1ccc(C(=O)NNC(=S)Nc2ccccc2)cc1,"inconclusive: 5.17 µM [activator, partial curve]",
Cc1ccc(CNc2ncnc3cc(Cl)ccc23)cc1,"inconclusive: 11.6 µM [inhibitor, partial curve, poor fit]",
Cc1cccc(NC(=O)N(Cc2cc3cc(C)cc(C)c3[nH]c2=O)CC2COCCO2)c1 (centres undefined),active: 11.6 µM,
CC(=O)c1cnc(Nc2ccc(C)cc2)s1,"inconclusive: 29.1 µM [activator, single point]",
CCn1nc(NC(=O)CC(C)C)c2cc3ccc(C)cc3nc21,inactive,
COC(=O)c1ccc(C(=O)NC2CCCc3c2cnn3-c2cc(F)cc(F)c2)nc1 (centres undefined),active: 20.6 µM,
CC(=O)N(/N=C1/C(=O)Nc2ccccc21)c1ccccc1,"inconclusive: 14.6 µM [activator, partial curve]",
CSc1nc2c(c(=O)[nH]1)C(c1ccc(Cl)cc1)CC(=O)N2 (centres undefined),"inconclusive: 25.9 µM [activator, partial curve, poor fit]",
Cn1cc(CN2CCCC(C(=O)Nc3ccc(-c4cccc(F)c4)cc3)C2)cn1 (centres undefined),"inconclusive: 18.3 µM [activator, single point]",
Clc1ccc(CSc2nc3ccncc3[nH]2)cc1,"inconclusive: 2.59 µM [activator, partial curve]",
COc1ccc(S(=O)(=O)N(CCc2ccccc2)CC(=O)O)cc1C,inactive,
CCC(=O)N1CCc2cc(S(=O)(=O)NC(C(=O)Nc3cccc(C)n3)C(C)C)ccc21 (centres undefined),"inconclusive: 29.1 µM [activator, single point]",
CC(=O)Nc1ccc(NC(=O)C(C)OC(=O)c2ccc3[nH]c(C)c(C)c3c2)cc1 (centres undefined),"inconclusive: 14.6 µM [inhibitor, partial curve, poor fit]",
C[C@@]12C(=O)N(c3cccc(F)c3)C(=O)N1[C@H](c1ccc(Cl)cc1)[C@@H]1C(=O)N(C3CCCCC3)C(=O)[C@@H]12,inactive,
O=C1CN(C(=O)Cn2ncc(Cl)c(Cl)c2=O)c2ccccc2N1,"inconclusive: 29.1 µM [inhibitor, single point]",
O=C1c2ccccc2-n2c1nc1ccccc1c2=O,"inconclusive: 1.64 µM [inhibitor, partial curve]",

# Five entries from above, set out differently:
Compound | Potency | activity change, negative = inhibition
COC(=O)c1ccc(-c2nc3ccccc3o2)cc1 | inconclusive: 2.31 µM [activator, partial curve] | 
COc1ccc(C(=O)NNC(=S)Nc2ccccc2)cc1 | inconclusive: 5.17 µM [activator, partial curve] | 
Cc1ccc(CNc2ncnc3cc(Cl)ccc23)cc1 | inconclusive: 11.6 µM [inhibitor, partial curve, poor fit] | 
Cc1cccc(NC(=O)N(Cc2cc3cc(C)cc(C)c3[nH]c2=O)CC2COCCO2)c1 (centres undefined) | active: 11.6 µM | 
CC(=O)c1cnc(Nc2ccc(C)cc2)s1 | inconclusive: 29.1 µM [activator, single point] | 

# Further structures

Compound,Potency,"activity change, negative = inhibition"
CCOC(=O)[C@@H]1[C@H]2COc3ccccc3[C@@H]2N2C(=O)N(c3ccc(C)cc3)C(=O)[C@]12C,"inconclusive: 32.6 µM [activator, single point]",
Cc1ccc(-c2n[nH]c(=S)n2/N=C/C=C/c2ccccc2[N+](=O)[O-])cc1,inactive,
CSc1cccc(NC(=O)CN(c2ccccc2)S(=O)(=O)N(C)C)c1,inactive,
COc1cc(OC)cc(C(=O)NC(C(=O)NNC(=O)c2cc(Cl)ccc2OC)C(C)C)c1 (centres undefined),"inconclusive: 20.6 µM [inhibitor, partial curve, poor fit]",
Cc1ccc(-n2nc3c(=O)n(CCCC(=O)NCc4ccccc4Cl)nc(C)c3c2C)cc1,"inconclusive: 29.1 µM [inhibitor, single point]",
CC(C(=O)Nc1ccc(N(C)C)cc1)N1C(=O)c2ccccc2S1(=O)=O (centres undefined),inactive,
CCOC(=O)c1sc(N2N=C(C)/C(=C\c3ccc(OCC(=O)OC)cc3)C2=O)nc1C,"inconclusive: 16.4 µM [activator, single point]",
O=C(NCCCN1CCCC1=O)C(=O)Nc1cccc(F)c1,"inconclusive: 13 µM [activator, partial curve]",
COc1cccc(C2=NN(C(=O)c3ccco3)C(c3ccco3)C2)c1 (centres undefined),inactive,
O=C(NC(=S)Nc1ccc2c(c1)OCO2)c1ccc(Cl)cc1,"inconclusive: 5.8 µM [activator, partial curve]",
COc1cc(C(=O)NCC(C)(C)CNC(=O)c2cc(OC)c(OC)c(OC)c2)cc(OC)c1OC,"inconclusive: 3.98 µM [inhibitor, full curve, poor fit]",
C/C(=N/Oc1nc(C)cc(C)n1)c1ccc(Br)cc1,"inconclusive: 23.1 µM [activator, partial curve, poor fit]",
NC(=O)C1=C[C@@H](c2ccc(C(F)(F)F)cc2)C[C@@H](OCc2ccc(CO)cc2)O1,inactive,
CN(C)S(=O)(=O)Oc1cccc(C(=O)Nc2ccc([N+](=O)[O-])cc2)c1,"inconclusive: 0.517 µM [inhibitor, full curve, poor fit]",
CCCCn1c(N)c(N(CCC(C)C)C(=O)c2cc(S(=O)(=O)N3CCOCC3)ccc2F)c(=O)[nH]c1=O,inactive,
COc1cccc(-c2nn(-c3ccc(C)cc3)cc2C(=O)NCC(c2cccs2)N2CCOCC2)c1 (centres undefined),"inconclusive: 22.4 µM [inhibitor, single point]",
Cn1c(=O)c(C(=O)NCC2CCCO2)c(O)c2ccccc21 (centres undefined),"inconclusive: 13 µM [activator, partial curve]",
CCC(C(=O)Nc1ccc(OC)c(Cl)c1)c1ccccc1 (centres undefined),"inconclusive: 0.517 µM [inhibitor, partial curve, poor fit]",
CCOC(=O)C1CCN(c2c(Nc3ccc4c(c3)OCCO4)c(=O)c2=O)CC1,"inconclusive: 18.4 µM [activator, partial curve]",
O=C(CSc1nnc(CNC(=O)c2cccs2)o1)c1ccc(Cl)cc1,"inconclusive: 18.4 µM [inhibitor, partial curve, poor fit]",
Cc1ccsc1/C=N/NC(=O)CNC(=O)c1ccccc1,inactive,
C=CCC1NS(=O)(=O)OCC1NC(=O)OCC(Cl)(Cl)Cl (centres undefined),inactive,
O=Nc1c(-c2c(O)[nH]c3cc(Br)ccc23)[nH]c2ccccc12,"inconclusive: 0.651 µM [activator, partial curve]",

Compound,Potency,"activity change, negative = inhibition"
COc1ccc(CCNC(=O)c2nnc(Cc3ccc(Cl)cc3)o2)cc1OC,"inconclusive: 20.6 µM [inhibitor, single point]",
Brc1cccc(-c2cnc3n2CCCCC3)c1,"inconclusive: 0.058 µM [inhibitor, partial curve, poor fit]",
COc1cccc(NC(=O)CCCn2nc(C)c3c(C)n(-c4ccccc4)nc3c2=O)c1,inactive,
COc1ccc(C(=O)COC(=O)c2cccc(-n3cnnn3)c2)c(OC)c1,"inconclusive: 10.3 µM [activator, partial curve]",
Cc1ccc2c(c1)N=C(c1ccc(Cl)cc1)CO2,"inconclusive: 5.8 µM [activator, partial curve]",
Nn1c(COc2cccc(Br)c2)nnc1SCC(=O)N1CCc2ccccc2C1,inactive,
COc1ccc(NC(=O)c2sc3nc(C)cc(C)c3c2N)cc1,"inconclusive: 2.59 µM [activator, partial curve]",
Cc1ccc(N(C(=O)CS(=O)CC(=O)Nc2ccc(F)cc2)C(C)C(=O)NC(C)(C)C)cc1 (centres undefined),"inconclusive: 16.4 µM [activator, partial curve, poor fit]",
Cc1ccc(C)c(CN2CCSCC2)c1,inactive,
CCc1nc(SCc2cccnc2)c2c(=O)n(C)c(=O)n(C)c2n1,"inconclusive: 23.1 µM [inhibitor, single point]",
COc1ccc(-c2cc(C3CCN(Cc4cccc(C(F)(F)F)c4)CC3)[nH]n2)cc1,"inconclusive: 11.6 µM [inhibitor, partial curve, poor fit]",
COCCn1c(Sc2ccc(C)cc2)nc2c1c(=O)[nH]c(=O)n2C,"inconclusive: 8.2 µM [activator, partial curve, poor fit]",
Cc1onc(-c2ccccc2)c1C(=O)N/N=C/C(Br)=C/c1ccccc1,inactive,
COc1cccc(CC(NC(C)=O)C(=O)NC2CCN(S(=O)(=O)c3ccc(NC(C)=O)cc3)CC2)c1OC (centres undefined),inactive,
CC(=O)Nc1ccc(C(=O)OCc2ccc(Cl)c(Cl)c2)cc1,inactive,
CCOc1cc(N2CCOCC2)c(OCC)cc1NC(=O)COC(=O)c1cc2ccccc2cc1O,inactive,
CCCCC(=O)NNC(=S)NC(=O)c1cccc([N+](=O)[O-])c1,"inconclusive: 0.731 µM [inhibitor, single point]",
COc1cc(CNCCSc2nnnn2C)cc(Br)c1OCc1ccccc1,"inconclusive: 18.3 µM [inhibitor, single point]",
CC1CCC2(CC1)NC(=O)N(CC(=O)c1ccc(CNC(=O)C(C)(C)C)s1)C2=O (centres undefined),inactive,
Cc1c(NC(=O)C(C)OC(=O)c2ccc(NC(=O)CC#N)cc2)c(=O)n(-c2ccccc2)n1C (centres undefined),inactive,
COc1ccccc1NC(=O)Nc1nn(C)c2cccc(OC)c12,"inconclusive: 18.3 µM [inhibitor, single point]",
Cc1ccc(SCC(=O)Nc2ccc3c(c2)C(=O)N(C)C3=O)cc1,inactive,
COCc1nnc(NC(=O)C23CC4CC(CC(C4)C2)C3)s1,"inconclusive: 29.1 µM [activator, single point]",
